No constants are given. Whether binding was seen depends on the method and setting. Some results given as binding are weak or reduced against the parent protein; the word gives no strength.
Target: human VEGFR2 (KDR) expressed on 293/KDR cells (human) (UniProt P35968)
Experiment: flow cytometry on 293/KDR cells, competition of unlabelled AB1 against 1 µg/mL Biotin-AB1 [panel Unlabelled AB1]

Protein sequences, listed by entry. Tags and fused reporters are not part of them. Lines headed by an entry give the natural chain unless they say otherwise; changes in a name come on top.
UniProt P35968: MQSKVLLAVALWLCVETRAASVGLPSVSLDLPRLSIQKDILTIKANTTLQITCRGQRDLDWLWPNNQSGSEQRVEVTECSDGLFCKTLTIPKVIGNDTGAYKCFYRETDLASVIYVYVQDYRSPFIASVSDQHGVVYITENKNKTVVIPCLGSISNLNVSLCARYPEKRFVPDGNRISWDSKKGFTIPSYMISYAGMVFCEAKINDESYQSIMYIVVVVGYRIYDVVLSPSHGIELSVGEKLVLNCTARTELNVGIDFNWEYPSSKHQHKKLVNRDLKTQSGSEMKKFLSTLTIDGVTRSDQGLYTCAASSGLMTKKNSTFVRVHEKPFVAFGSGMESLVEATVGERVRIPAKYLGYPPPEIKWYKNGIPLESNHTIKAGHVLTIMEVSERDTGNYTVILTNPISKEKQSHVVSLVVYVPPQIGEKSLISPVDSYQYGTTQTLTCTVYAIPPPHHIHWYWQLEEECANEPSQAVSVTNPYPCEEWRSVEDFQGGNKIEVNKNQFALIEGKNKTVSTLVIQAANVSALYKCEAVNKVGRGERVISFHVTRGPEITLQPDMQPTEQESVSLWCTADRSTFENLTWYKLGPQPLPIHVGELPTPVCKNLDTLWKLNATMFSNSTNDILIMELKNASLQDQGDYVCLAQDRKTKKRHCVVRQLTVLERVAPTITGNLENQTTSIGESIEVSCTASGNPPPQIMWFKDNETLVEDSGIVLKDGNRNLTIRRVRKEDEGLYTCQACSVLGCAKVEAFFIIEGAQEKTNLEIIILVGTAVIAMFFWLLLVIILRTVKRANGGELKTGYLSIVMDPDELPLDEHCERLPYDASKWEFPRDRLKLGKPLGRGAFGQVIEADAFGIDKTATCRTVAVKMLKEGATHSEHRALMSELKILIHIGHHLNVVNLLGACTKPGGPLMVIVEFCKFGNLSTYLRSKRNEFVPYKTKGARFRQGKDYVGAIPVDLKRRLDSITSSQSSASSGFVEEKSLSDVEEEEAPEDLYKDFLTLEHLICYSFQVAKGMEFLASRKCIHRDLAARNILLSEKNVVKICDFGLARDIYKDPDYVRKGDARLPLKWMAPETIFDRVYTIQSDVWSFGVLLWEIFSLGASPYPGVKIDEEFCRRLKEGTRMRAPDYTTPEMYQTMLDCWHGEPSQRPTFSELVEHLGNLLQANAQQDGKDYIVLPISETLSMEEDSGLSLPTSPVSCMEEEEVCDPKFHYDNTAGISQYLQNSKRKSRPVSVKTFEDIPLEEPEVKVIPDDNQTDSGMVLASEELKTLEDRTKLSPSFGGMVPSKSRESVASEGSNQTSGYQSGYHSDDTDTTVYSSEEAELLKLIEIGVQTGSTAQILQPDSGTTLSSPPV

B1: free AB1 antibody (VHH)
VHH: QVQLVESGGGLVQAGGSLRLSCAASGRAFSSYAMGWFRQAPGKERELVAAISWSDDSTYYANSVKGRFTISRDNAKSAVYLQMNSLKPEDTAVYYCAAHKSLQRPDEYTYWGQGTQVTVSS
Question: How did the binding turn out when B1 was run?
Answer: binds
